Measured values published in paper PMC9682730.

By UniProt entry, the sequences of proteins in these tests, tags left out. Where a name states a change or a piece, a line headed by the entry shows the natural chain unless it says otherwise.
UniProt Q9UQN3: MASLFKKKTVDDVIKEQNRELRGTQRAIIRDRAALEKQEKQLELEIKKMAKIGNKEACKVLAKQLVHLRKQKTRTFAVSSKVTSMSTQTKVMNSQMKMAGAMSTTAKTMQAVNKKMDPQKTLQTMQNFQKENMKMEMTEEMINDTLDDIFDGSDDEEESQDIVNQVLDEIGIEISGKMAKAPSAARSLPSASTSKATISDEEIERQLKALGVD
UniProt Q9NZZ3: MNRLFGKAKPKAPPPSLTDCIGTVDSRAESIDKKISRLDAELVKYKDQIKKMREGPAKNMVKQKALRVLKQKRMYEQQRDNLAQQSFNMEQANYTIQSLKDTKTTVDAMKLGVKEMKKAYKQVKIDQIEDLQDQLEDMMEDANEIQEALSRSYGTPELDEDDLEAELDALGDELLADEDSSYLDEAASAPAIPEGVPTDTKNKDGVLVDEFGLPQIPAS

Target: FLAG-CHMP2B^Intron5 (UniProt Q9UQN3)
Experiment: affinity purification with mass spectrometry; anti-FLAG M2 affinity gel IP from lysates of HEK293 cells transfected with FLAG-CHMP2B^Intron5, FLAG-CHMP2B^WT or empty FLAG vector; FLAG peptide elution; in-gel digestion, LC-MS/MS, IBAQ quantification

Row | binding | Molecule
1 | binds | CHMP5 (from UniProt Q9NZZ3 1-219)
2 | binds | CHMP1B (protein, UniProt Q7LBR1 1-199) MSNMEKHLFNLKFAAKELSRSAKKCDKEEKAEKAKIKKAIQKGNMEVARIHAENAIRQKNQAVNFLRMSARVDAVAARVQTAVTMGKVTKSMAGVVKSMDATLKTMNLEKISALMDKFEHQFETLDVQTQQMEDTMSSTTTLTTPQNQVDMLLQEMADEAGLDLNMELPQGQTGSVGTSVASAEQDELSQRLARLRDQV

No constants are given. Whether binding was seen depends on the method and setting. Binding seen in cells or lysates may run through a third protein. Here binding means that the protein was enriched with, or labelled near, the bait; the list need not be complete.
